Publication PMC9023290
Results are given in words; binding and its absence hold for the method and conditions named. Binding seen in cells or lysates may run through a third protein. Some results given as binding are weak or reduced against the parent protein; the word gives no strength. For some of these results: Sequences can lack the tags named with a protein.

Amino acid sequences for entries named in this document (tags omitted).
UniProt P78527: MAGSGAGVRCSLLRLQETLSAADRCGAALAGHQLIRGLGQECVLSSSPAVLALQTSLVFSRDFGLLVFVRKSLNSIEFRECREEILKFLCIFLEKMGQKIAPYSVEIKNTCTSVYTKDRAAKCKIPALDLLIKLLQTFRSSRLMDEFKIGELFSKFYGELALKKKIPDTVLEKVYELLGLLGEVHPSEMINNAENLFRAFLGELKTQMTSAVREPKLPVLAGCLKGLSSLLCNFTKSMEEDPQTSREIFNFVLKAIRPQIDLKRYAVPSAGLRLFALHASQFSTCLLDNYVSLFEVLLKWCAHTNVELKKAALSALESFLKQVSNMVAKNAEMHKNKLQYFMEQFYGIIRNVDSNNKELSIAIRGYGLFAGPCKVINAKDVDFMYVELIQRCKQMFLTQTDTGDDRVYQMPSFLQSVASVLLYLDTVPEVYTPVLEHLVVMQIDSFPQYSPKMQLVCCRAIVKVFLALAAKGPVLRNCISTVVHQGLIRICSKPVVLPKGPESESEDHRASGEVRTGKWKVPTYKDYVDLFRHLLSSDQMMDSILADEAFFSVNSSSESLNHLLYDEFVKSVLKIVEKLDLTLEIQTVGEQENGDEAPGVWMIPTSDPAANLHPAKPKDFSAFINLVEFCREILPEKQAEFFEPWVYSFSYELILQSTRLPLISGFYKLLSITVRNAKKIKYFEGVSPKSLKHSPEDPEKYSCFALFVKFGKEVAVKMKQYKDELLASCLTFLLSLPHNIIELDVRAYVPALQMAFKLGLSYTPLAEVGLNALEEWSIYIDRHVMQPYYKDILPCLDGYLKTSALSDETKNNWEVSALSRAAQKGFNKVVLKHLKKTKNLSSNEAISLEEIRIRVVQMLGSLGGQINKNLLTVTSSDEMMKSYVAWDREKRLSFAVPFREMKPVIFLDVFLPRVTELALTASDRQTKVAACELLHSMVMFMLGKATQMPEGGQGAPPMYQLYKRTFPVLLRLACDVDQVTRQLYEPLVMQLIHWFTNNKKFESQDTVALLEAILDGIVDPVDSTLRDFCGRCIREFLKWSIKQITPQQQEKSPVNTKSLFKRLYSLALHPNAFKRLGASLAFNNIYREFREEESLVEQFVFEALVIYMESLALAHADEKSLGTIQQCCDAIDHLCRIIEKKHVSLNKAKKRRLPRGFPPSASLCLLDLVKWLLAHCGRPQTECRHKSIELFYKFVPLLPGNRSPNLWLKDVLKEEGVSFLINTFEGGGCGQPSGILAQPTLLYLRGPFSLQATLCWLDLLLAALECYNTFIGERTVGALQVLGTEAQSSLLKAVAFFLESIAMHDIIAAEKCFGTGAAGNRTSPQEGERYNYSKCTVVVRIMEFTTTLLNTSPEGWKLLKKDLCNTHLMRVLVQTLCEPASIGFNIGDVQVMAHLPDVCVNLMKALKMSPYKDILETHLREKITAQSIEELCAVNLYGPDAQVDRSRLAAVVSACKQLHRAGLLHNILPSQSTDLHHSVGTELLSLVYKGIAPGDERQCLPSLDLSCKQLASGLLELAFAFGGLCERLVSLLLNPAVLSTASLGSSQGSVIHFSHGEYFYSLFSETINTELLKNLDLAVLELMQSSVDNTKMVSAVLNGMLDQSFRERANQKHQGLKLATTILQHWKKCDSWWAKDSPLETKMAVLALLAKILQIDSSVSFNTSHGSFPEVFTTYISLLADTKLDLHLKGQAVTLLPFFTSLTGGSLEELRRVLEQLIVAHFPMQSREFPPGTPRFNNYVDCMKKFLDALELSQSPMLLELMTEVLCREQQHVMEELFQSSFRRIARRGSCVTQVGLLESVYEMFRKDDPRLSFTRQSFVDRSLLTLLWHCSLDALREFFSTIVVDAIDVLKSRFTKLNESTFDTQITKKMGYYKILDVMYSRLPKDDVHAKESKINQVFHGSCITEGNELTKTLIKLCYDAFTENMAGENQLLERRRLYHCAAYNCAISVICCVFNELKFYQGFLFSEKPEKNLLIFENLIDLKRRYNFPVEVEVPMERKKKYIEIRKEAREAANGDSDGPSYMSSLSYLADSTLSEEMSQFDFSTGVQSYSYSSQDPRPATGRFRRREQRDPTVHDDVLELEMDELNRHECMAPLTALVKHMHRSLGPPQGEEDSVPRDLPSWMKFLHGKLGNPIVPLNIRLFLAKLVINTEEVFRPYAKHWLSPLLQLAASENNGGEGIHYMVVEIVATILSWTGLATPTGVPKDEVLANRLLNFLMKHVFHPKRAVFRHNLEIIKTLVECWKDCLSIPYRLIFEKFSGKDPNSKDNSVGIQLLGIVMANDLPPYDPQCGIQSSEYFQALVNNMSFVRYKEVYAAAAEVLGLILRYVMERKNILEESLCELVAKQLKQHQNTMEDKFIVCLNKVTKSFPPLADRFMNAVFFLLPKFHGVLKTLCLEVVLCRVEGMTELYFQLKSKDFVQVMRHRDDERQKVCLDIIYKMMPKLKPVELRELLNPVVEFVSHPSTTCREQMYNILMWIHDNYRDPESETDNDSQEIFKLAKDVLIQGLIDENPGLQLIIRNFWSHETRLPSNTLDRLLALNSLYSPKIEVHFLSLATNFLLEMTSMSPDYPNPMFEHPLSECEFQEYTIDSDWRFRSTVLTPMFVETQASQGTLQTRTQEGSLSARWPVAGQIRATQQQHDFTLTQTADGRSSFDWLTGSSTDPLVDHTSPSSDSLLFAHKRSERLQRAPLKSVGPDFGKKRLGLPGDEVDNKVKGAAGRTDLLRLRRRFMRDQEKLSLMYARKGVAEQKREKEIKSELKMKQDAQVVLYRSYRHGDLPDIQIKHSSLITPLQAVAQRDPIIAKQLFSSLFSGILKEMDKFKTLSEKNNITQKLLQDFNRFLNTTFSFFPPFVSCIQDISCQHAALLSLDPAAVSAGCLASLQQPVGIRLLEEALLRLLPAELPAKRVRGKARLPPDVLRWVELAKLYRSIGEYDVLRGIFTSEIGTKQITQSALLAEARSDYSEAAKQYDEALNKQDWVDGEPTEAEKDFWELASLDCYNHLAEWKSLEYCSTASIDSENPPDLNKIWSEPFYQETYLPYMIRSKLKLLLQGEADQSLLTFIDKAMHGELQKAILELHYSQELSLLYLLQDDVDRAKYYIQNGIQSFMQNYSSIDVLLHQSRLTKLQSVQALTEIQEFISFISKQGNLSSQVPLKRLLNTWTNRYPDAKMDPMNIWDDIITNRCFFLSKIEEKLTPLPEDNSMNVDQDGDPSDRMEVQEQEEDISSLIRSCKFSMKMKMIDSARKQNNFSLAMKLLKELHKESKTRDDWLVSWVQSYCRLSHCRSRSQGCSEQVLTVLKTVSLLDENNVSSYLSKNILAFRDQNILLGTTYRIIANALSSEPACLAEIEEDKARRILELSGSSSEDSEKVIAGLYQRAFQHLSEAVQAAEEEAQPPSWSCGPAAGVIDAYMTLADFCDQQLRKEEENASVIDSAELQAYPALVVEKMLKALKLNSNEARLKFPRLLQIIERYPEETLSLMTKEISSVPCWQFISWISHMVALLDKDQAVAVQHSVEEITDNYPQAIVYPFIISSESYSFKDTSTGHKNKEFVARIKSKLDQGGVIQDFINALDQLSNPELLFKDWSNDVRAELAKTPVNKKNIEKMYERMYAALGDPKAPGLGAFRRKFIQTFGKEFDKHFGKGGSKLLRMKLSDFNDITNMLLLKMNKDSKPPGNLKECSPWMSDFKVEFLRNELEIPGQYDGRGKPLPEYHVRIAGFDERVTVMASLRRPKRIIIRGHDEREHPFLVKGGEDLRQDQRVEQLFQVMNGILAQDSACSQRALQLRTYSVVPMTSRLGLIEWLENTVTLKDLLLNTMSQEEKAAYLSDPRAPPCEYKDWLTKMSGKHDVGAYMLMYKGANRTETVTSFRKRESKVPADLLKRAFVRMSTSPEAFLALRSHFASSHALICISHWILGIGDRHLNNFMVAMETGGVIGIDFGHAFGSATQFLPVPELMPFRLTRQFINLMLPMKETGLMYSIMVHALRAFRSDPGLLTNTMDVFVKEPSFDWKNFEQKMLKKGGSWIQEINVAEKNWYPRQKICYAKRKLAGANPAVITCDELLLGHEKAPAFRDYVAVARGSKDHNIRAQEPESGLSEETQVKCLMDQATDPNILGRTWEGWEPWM

Columns and labels:
[1] = biological target: T1, ZMYM2 (construct not stated; Supplementary Figures S2B and S7B) (human) (UniProt Q9UBW7); experiment: co-IP; IP western blotting of ZMYM2 co-immunoprecipitated proteins (Supplementary Figure S2B); HDAC2 as positive control; construct and cells not told
T1 sequence: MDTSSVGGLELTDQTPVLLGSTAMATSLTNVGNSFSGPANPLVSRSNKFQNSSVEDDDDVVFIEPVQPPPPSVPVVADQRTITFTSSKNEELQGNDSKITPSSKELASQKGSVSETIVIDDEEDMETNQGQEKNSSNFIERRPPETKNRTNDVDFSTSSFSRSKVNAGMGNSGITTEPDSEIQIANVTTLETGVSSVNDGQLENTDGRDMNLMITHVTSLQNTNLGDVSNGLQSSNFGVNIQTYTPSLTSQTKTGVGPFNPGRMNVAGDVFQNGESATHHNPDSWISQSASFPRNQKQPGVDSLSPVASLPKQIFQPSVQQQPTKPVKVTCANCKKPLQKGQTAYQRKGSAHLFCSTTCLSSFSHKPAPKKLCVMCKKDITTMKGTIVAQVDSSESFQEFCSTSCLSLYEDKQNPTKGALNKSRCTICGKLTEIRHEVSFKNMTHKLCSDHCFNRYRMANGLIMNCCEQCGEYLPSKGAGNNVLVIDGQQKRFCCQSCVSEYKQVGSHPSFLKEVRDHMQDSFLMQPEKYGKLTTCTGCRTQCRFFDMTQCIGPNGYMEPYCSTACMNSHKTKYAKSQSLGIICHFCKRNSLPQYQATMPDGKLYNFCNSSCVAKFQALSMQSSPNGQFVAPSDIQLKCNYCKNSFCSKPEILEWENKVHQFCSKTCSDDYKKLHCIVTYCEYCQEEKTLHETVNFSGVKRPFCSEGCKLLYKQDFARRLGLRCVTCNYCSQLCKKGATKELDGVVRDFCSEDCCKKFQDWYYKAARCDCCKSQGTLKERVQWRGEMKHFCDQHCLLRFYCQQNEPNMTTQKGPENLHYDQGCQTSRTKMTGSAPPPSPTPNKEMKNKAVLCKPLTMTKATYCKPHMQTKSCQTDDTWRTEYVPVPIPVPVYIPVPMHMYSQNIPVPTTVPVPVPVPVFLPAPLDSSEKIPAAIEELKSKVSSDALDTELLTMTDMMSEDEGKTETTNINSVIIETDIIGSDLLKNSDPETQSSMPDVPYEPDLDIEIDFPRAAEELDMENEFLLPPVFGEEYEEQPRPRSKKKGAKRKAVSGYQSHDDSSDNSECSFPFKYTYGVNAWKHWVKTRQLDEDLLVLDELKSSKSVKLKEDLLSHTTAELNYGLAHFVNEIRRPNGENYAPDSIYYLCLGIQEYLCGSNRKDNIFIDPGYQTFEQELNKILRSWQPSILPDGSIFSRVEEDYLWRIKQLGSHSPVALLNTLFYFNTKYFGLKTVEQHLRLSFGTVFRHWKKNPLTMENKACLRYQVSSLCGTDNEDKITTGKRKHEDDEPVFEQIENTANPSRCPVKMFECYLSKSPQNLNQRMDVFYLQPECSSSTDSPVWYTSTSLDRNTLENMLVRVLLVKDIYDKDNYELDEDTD

GFP-tagged ZMYM3 (human) = biological target: T2, GFP-tagged ZMYM3 (human) (UniProt Q14202); experiment: co-IP; differentially SFB- and GFP-tagged ZMYM2 and ZMYM3 co-expressed in HEK293T; IP with anti-GFP beads (GFP-Trap) overnight at 4°C; NETN lysis buffer with 10 mM MgCl2 and TurboNuclease; western blot
T2 sequence: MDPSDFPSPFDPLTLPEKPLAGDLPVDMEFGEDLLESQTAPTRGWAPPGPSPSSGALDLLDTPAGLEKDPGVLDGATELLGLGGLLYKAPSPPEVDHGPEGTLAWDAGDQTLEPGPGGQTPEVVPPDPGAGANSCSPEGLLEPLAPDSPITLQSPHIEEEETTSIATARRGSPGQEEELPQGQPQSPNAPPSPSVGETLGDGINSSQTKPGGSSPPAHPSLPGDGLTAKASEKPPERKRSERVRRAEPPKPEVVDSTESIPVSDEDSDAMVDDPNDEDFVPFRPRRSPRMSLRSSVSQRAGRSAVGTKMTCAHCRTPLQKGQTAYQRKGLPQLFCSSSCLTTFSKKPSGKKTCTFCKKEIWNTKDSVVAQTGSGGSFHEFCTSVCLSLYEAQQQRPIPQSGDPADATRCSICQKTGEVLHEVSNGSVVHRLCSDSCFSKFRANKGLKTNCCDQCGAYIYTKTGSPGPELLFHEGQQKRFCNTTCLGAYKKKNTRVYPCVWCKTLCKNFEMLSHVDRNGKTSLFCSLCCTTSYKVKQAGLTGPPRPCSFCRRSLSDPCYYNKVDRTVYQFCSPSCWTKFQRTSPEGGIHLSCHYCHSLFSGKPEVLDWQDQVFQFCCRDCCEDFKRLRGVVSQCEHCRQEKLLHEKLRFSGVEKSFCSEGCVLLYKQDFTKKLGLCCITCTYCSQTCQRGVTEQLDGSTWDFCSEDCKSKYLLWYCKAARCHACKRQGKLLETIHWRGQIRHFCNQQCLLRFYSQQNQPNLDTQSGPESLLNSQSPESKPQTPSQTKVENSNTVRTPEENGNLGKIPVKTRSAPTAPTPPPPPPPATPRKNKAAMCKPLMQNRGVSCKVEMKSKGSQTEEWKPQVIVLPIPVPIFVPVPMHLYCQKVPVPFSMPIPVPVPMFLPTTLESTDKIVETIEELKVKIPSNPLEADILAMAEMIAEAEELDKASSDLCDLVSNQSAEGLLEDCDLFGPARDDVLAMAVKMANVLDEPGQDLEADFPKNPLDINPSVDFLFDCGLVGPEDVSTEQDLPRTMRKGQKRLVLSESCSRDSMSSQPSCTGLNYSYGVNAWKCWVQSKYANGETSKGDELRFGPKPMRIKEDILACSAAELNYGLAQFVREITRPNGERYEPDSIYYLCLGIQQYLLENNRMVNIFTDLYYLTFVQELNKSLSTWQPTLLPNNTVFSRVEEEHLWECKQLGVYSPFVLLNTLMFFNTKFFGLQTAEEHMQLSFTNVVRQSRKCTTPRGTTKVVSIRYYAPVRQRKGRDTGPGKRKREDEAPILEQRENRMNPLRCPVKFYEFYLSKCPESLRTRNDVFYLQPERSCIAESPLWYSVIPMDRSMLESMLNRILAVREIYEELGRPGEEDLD

GFP-tagged ZMYM2 (human) = biological target: T3, GFP-tagged ZMYM2 (human) (UniProt Q9UBW7); experiment: as above
T3 sequence: T1 sequence

SFB-tagged ZMYM2 (human) = biological target: T4, SFB-tagged ZMYM2 (human) (UniProt Q9UBW7); experiment: co-IP; SFB-ZMYM2 expressed in HEK293T, untreated or IR-treated; precipitation of the SFB-tagged protein; endogenous ZMYM3 detected with a specific antibody; NETN lysis buffer with TurboNuclease
T4 sequence: T1 sequence

For “DNA-dependent protein kinase DNA-PK (PRKDC) (from UniProt P78527 1-4128) (enzyme)”, the binding [1] was “binds”.

B1: SFB-tagged ZMYM2 (protein, UniProt Q9UBW7 1-1377)
chain: T1 sequence
With B1 the binding (GFP-tagged ZMYM3 (human)) was “binds”.

B2: SFB-tagged ZMYM3 (protein, UniProt Q14202 1-1370)
chain: T2 sequence
For B2, the binding (GFP-tagged ZMYM2 (human)) was “binds”.

B3: Endogenous ZMYM3 (protein, UniProt Q14202 1-1370)
chain: T2 sequence
B3 was tested, and the binding (SFB-tagged ZMYM2 (human)) was “binds”.
